The supplement of paper PMC8497498
± gives the standard deviation of the averaged measurements. The list shows a part of the results. The data scatter; read single values as rough.

How the values were obtained:
Conditions in all cases: 10 µM
[1] = tested on: Plasmodium vivax liver stage (primary human hepatocyte culture); experiment: hypnozoite quantity inhibition (% inhibition); higher = more active against hypnozoites
[2] = tested on: Plasmodium vivax liver stage (primary human hepatocyte culture); experiment: schizont net growth area inhibition (% inhibition); higher = more active against liver schizonts
[3] = tested on: primary human hepatocytes; experiment: hepatic nuclei reduction relative to DMSO (100 - % of negative control); higher = more toxic to hepatocytes
[4] = assay mode: Prophylactic (treated before or shortly after infection), fixed day 6 post-infection
[5] = assay mode: Radical Cure (treated from day 5 post-infection for 3 days), fixed day 8 post-infection

Row | SMILES | hypnozoite quantity inhibition [1, 4] | hypnozoite quantity inhibition [1, 5] | schizont net growth area inhibition [2, 4] | schizont net growth area inhibition [2, 5] | hepatic nuclei reduction [3, 4] | hepatic nuclei reduction [3, 5]
1 | C=CC1CN2CCC1CC2C(O)c1ccnc2ccc(OC)cc12 (configuration not stated) | -31 | 28 | -28.6 | 64.5 | -4% | 1%
2 | COC(=O)c1c(NC(=O)c2cc3ccccc3oc2=O)sc2c1CCN(Cc1ccccc1)C2 | 21 | 16 | 43.5 | -61.7 | -3% | -6%
3 | COc1ccc2sc(N(Cc3cccnc3)C(=O)c3ccc(C#N)cc3)nc2c1 | 14.5 | 31.9 | 43 | -22.8 | -4% | -8%
4 | COc1cc(SC)ccc1C(=O)N1CCCC(C)C1 (configuration not stated) | -28.8 | 29 | -20.4 | -48.7 | -6% | 0%
5 | OC(CNC1CCCCC1)Cn1c2ccc(I)cc2c2cc(I)ccc21 (configuration not stated) | 21.5 | 18.3 | -17.4 | -20.7 | 10% | -9%
6 | Nc1ncnc2[nH]nc(Cc3cccc4ccccc34)c12 | -76 | -5 | -146 | -31.7 | -6% | 3%
7 | Clc1ccc(-n2cc(COc3ccnc4ccccc34)nn2)cc1 | -20 | 45 | 99.2 | -54.4 | -5% | -3%
8 | CC[P](CC)(CC)=[Au][S][C@H]1O[C@@H](COC(C)=O)[C@H](OC(C)=O)[C@@H](OC(C)=O)[C@@H]1OC(C)=O | -7 | -51 | 7 | 42.9 | 3% | 4%
9 | N#Cc1nc(-c2ccccc2)oc1S(=O)(=O)c1ccc(Cl)cc1 | -21 | -41 | 38.6 | -42.9 | 5% | 6%
10 | Cc1ccc(-c2cc3nc4c(c(O)n3n2)CCCC4)cc1 | -27.3 | 29 | -22.2 | 46.3 | -13% | -1%
11 | N#Cc1nc(Cc2cccc3ccccc23)oc1N1CCN(C(c2ccccc2)c2ccccc2)CC1 | -7.2 | -12.2 | 14 | 64.8 | -12% | 6%
12 | CC1CCC2C(C)C(O)OC3OC4(C)CCC1C32OO4 (configuration not stated) | 14 | 23 | 11.7 | -6.3 | -14% | -4%
13 | O=C(NC1CCCCC1)N1CCN(Cc2ccc3c(c2)OCO3)CC1 | -13 | -10 | 10.8 | 15 | 1% | -4%
14 | COc1ccc(-c2nc3cc(Cc4ccc5[nH]c(-c6ccc(OC)cc6)nc5c4)ccc3[nH]2)cc1 | 1.7 | 15.3 | 35.9 | -21 | 21% | -6%
15 | O=C(Nc1cccc(C2=NCCN2)c1)Nc1cccc(C2=NCCN2)c1 | -28.8 | 35.9 | -60.7 | 39.8 | -14% | 2%
16 | CCCN(CCC)CC(O)COc1ccccc1C(=O)Nc1ccccc1 (configuration not stated) | -32.5 | 19.8 | -51.8 | 8.4 | -12% | -6%
17 | COc1cccc2c(C)nc(N=C(N)N)nc12 | 3 | -2 | 20.1 | -3 | -1% | -9%
18 | Nc1ccc(S(=O)(=O)c2ccc(N)cc2)cc1 | 0 | 20 | -78.7 | -5 | -8% | -1%
19 | Cc1cccc(N2C(=O)C3C(C2=O)C2(c4ccccc4)C(=O)C3(c3ccccc3)C(c3ccc4c(c3)OCO4)=C2c2ccc3c(c2)OCO3)c1 (configuration not stated) | -31.8 | 42.7 | 32.2 | -24.8 | -7% | -3%

Row | SMILES | hypnozoite quantity inhibition [1, 4] | hypnozoite quantity inhibition [1, 5] | schizont net growth area inhibition [2, 4] | schizont net growth area inhibition [2, 5] | hepatic nuclei reduction [3, 4] | hepatic nuclei reduction [3, 5]
20 | CN(C)c1ccc(N=Cc2ccc(N3CCOCC3)cc2)cc1 | -20.2 | 29.2 | 27.8 | -18.1 | 6% | -1%
21 | CS(=O)(=O)c1ccc(-c2cnc(N)c(-c3ccc(C(F)(F)F)nc3)c2)cc1 | 90 | -6 | 95.5 | 107 | -15% | -9%
22 | COc1ccc(CCN2CCC(NCc3cccc(N(C)C)c3)CC2)cc1 | 15 | -4 | 35.5 | -4.7 | 1% | -1%
23 | C=C(NC(=O)C(=C)NC(=O)c1csc(C2=NC3c4csc(n4)C4NC(=O)c5csc(n5)C(C(C)(O)C(C)O)NC(=O)C5CSC(=N5)C(=CC)NC(=O)C(C(C)O)NC(=O)c5csc(n5)C3(CC2)NC(=O)C(C)NC(=O)C(=C)NC(=O)C(C)NC(=O)C(C(C)CC)NC2C=Cc3c(C(C)O)cc(nc3C2O)C(=O)OC4C)n1)C(N)=O (configuration not stated) | 12 | -4 | 98.9 | 42.4 | 10% | -2%
24 | CCc1ccc(C(NCc2nc(N)nc(N(C)C)n2)C(C)C)cc1 (configuration not stated) | -72 | -28 | -57.4 | -127 | -15% | -6%
25 | O[C@H](c1cc(C(F)(F)F)nc2c(C(F)(F)F)cccc12)[C@@H]1CCCCN1 | 4 ± 40 | 38 ± 14 | 63.2 ± 6.2 | 55.4 ± 52 | 8.5 ± 0.71% | 5.5 ± 6.4%
26 | COc1ccccc1CNC(=O)CCn1c(=O)[nH]c2ccccc2c1=O | -38.5 | 17.6 | 97.7 | 9.6 | -11% | -2%
27 | CCOc1cc2c(cc1OCC)C(c1cc(C)c(O)c(C)c1)NCC2 (configuration not stated) | 27.2 | 53.7 | 34.7 | -10.6 | -2% | 10%
28 | Cc1cc2nc3c(=O)[nH]c(=O)nc-3n(CC(O)C(O)C(O)CO)c2cc1C (configuration not stated) | -39 | 41 | -105 | -23.1 | -4% | 0%
29 | FC(F)(F)c1cccc(Nc2nc(-c3ccccc3)nc3ncccc23)c1 | -2.8 | 51.9 | 43.1 | -6.4 | -13% | -6%
30 | CC1CC1C(=O)NC1CCN(CC2(c3ccccc3)CCCCC2)CC1 (configuration not stated) | 5 | -36 | 35.3 | -64.4 | -6% | -7%
31 | Nc1ncc(-c2ccc(C(F)(F)F)nc2)cc1-c1ccc(C(F)(F)F)nc1 | 97 | 1 | 102 | 104 | 1% | -14%
32 | N#Cc1cc(NC(=O)C2c3ccccc3C(=O)N(CC(F)(F)F)C2c2cccnc2)ccc1F (configuration not stated) | -52 | -12 | -31.2 | 28.3 | -6% | -3%
33 | CCn1c2c(c(=N)c3c1CCC3)CCCC2 | -1.3 | 23.7 | -123 | 17.4 | -5% | -2%
34 | CCOc1ccc2c(c1)CN(Cc1ccc(Cl)cc1)CO2 | 20.2 | -8.9 | 24.3 | -136 | -1% | -9%
35 | CCc1nc(N)nc(N)c1-c1ccc(Cl)cc1 | -92 | 15 | -51.6 | -2.6 | -14% | 7%
36 | Cc1noc(C)c1C(=O)N1CCCC(c2[nH]c3c(C)cccc3c2-c2ccncc2)C1 (configuration not stated) | 3 | -28 | 52.1 | 13.3 | -5% | -2%
37 | CCCCCCC[C@@H]1CN[C@H](C(=O)NC(C(C)Cl)C2O[C@H](SC)[C@H](O)[C@@H](O)[C@H]2O)C1 (some centres not stated) | -76 | 15 | -6.1 | 13.1 | 10% | -2%
38 | Cc1cc(Nc2ccc(OCc3ccccc3)cc2)nc2cc(O)ccc12 | -4.4 | 12.8 | -13.5 | 22.3 | -1% | -15%

3 records drawn at random from those above, as already listed:
Row | SMILES | hypnozoite quantity inhibition [1, 4] | hypnozoite quantity inhibition [1, 5] | schizont net growth area inhibition [2, 4] | schizont net growth area inhibition [2, 5] | hepatic nuclei reduction [3, 4] | hepatic nuclei reduction [3, 5]
25 | O[C@H](c1cc(C(F)(F)F)nc2c(C(F)(F)F)cccc12)[C@@H]1CCCCN1 | 4 ± 40 | 38 ± 14 | 63.2 ± 6.2 | 55.4 ± 52 | 8.5 ± 0.71% | 5.5 ± 6.4%
31 | Nc1ncc(-c2ccc(C(F)(F)F)nc2)cc1-c1ccc(C(F)(F)F)nc1 | 97 | 1 | 102 | 104 | 1% | -14%
30 | CC1CC1C(=O)NC1CCN(CC2(c3ccccc3)CCCCC2)CC1 (configuration not stated) | 5 | -36 | 35.3 | -64.4 | -6% | -7%

Continuation.

Row | SMILES | hypnozoite quantity inhibition [1, 4] | hypnozoite quantity inhibition [1, 5] | schizont net growth area inhibition [2, 4] | schizont net growth area inhibition [2, 5] | hepatic nuclei reduction [3, 4] | hepatic nuclei reduction [3, 5]
39 | CCOc1cc2c(cc1OCC)C(c1cc(Cl)ccc1O)NCC2 (configuration not stated) | 10.6 | 33.6 | 33 | -26.4 | -9% | 12%
40 | CCN(CC)c1ccc(NC(=O)c2cccs2)cc1 | -6.5 | 15.3 | 34.8 | 47.6 | -7% | 1%
41 | CCOC(=O)c1ccc2nc(-c3ccccc3)cc(O)c2c1 | -13.9 | 31.3 | 7.4 | 14.6 | -13% | 3%
42 | O=C(Nc1nnc(-c2ccc(Cl)cc2)o1)c1cccc(C(F)(F)F)c1 | 1 | 22 | 48.9 | 12.2 | 1% | 3%
43 | COc1ccccc1CNC(=O)c1cc(C2CC2)nc2c1cnn2C(C)C | 24 | -4 | -15.2 | -117 | -6% | 0%
44 | CCOc1ccc(-c2nc(CNCCc3ccc(F)cc3)cs2)cc1 | -22 | -22 | 1.2 | 22.9 | -18% | -3%
45 | CNCCCNc1ccnc2cc(Cl)ccc12 | -25.8 | 54.2 | -35.1 | 43.5 | -9% | 4%
46 | CS(=O)(=O)N1CCC(CCn2nc(Cc3cccc4ccccc34)c3c(N)ncnc32)CC1 | 4 | -15 | 46.4 | 31.8 | -2% | -5%
47 | c1ccc(Oc2ccc(-c3cc(CN4CCOCC4)[nH]n3)cc2)cc1 | -38 | -5 | -64.2 | 12 | -10% | 3%
48 | CCCS(=O)(=O)N1CCC(CO)(Cc2ccccc2C(F)(F)F)CC1 | -17 | -29 | -23.8 | -18.5 | -9% | 0%
49 | CCN(Cc1ccccc1)C1CCN(Cc2cc(Br)ccc2O)CC1 | 12 | 31.9 | -5.7 | 10.5 | 3% | -10%
50 | CCN(CC)S(=O)(=O)c1ccc(C(=O)Nc2cc(C)nn2-c2nc(C)c(C)c(=O)[nH]2)cc1 | 1 | -25 | -9.4 | -37.9 | -1% | 0%
51 | CN(C)c1ccc2nc3ccc(=[N+](C)C)cc-3sc2c1 | -24 | 20 | -37.6 | -0.4 | -12% | 0%
52 | Brc1c(-c2ccc3c(c2)OCO3)nc2ncccn12 | -3 | -25 | 74.2 | -126 | -8% | -9%
53 | Nc1ncnc2c1c(-c1cnc3ccccc3c1)nn2CC1CCNCC1 | 16 | -29 | -51.2 | -71.5 | -4% | -6%
54 | O=C(C1CCN(c2cc(-n3cccc3)ncn2)CC1)N1CCc2ccccc2C1 | 24 | 11 | 15.3 | -53.9 | 1% | -4%
55 | CN1CCN(CCCOc2ncc(Nc3ncc(-c4ccc(C(F)(F)F)c(F)c4)nc3C(N)=O)cn2)CC1 | -19 | -3 | 55.1 | 45.8 | 0% | -3%
56 | CCOc1ccc2cc(-c3nn(CC4CCN(C)CC4)c4ncnc(N)c34)ccc2c1 | -21 | -38 | 45.6 | -55 | 1% | 2%
57 | Cc1ccc(C(=O)Nc2ccc(S(=O)(=O)O)c3cc(S(=O)(=O)O)cc(S(=O)(=O)O)c23)cc1NC(=O)c1cccc(NC(=O)Nc2cccc(C(=O)Nc3cc(C(=O)Nc4ccc(S(=O)(=O)O)c5cc(S(=O)(=O)O)cc(S(=O)(=O)O)c45)ccc3C)c2)c1 | 25 | -18 | 36.3 | -114 | 1% | -2%
